Binding data for 1 substance are collected here from article PMC12703001.

Chains of the proteins cited; added tags and fusions are not shown.
UniProt Q9Y3Z3: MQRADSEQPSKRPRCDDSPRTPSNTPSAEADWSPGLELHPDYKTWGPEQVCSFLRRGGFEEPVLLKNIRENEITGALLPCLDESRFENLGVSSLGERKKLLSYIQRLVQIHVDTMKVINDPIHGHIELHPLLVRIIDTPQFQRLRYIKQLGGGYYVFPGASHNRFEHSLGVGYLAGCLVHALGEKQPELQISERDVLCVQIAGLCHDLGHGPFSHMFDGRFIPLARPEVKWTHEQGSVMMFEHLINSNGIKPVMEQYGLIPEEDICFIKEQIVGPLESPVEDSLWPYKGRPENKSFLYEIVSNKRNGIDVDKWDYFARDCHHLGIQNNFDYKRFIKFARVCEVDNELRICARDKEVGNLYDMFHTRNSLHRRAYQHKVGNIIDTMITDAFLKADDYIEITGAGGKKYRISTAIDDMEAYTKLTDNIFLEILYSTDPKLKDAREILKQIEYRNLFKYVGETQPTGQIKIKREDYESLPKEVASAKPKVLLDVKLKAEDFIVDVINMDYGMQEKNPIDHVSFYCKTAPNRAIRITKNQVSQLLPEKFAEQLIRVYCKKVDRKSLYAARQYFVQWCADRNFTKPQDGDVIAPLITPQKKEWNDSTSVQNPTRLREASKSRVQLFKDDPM
UniProt Q16531: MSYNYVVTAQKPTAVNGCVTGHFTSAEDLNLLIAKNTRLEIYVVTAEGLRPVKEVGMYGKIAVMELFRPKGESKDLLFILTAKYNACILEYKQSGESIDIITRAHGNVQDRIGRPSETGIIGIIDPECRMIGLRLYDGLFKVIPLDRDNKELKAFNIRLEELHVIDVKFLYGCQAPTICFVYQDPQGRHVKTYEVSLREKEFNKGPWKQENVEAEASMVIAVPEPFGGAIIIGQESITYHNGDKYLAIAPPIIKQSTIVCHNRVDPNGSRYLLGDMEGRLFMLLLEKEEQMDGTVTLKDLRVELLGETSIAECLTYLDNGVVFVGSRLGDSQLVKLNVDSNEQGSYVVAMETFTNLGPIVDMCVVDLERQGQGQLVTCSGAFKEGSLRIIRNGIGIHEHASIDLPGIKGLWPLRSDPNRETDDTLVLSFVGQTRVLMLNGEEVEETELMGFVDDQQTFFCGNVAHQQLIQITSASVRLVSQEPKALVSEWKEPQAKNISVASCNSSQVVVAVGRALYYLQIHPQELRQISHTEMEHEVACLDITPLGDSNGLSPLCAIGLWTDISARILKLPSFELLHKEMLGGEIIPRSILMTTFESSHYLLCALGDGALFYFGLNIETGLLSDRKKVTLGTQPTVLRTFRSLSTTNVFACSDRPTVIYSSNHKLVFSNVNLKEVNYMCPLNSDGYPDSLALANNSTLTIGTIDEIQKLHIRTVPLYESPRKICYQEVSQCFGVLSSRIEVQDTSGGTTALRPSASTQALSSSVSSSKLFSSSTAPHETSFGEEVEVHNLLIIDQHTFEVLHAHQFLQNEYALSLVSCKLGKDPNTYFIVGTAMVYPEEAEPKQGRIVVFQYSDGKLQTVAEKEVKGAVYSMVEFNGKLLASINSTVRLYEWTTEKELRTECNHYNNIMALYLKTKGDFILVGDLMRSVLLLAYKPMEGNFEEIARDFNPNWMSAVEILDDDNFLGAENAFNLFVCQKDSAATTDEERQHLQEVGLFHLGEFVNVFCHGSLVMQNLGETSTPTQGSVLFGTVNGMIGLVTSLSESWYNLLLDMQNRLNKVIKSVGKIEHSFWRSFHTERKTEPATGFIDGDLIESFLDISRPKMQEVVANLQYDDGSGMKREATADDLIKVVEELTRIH

For the test, the target named is SAMHD1-HA (HA-tagged wild-type SAMHD1) (human) (UniProt Q9Y3Z3). Nature of the test: affinity purification with mass spectrometry; HEK293T transfected with SAMHD1-HA vector or empty control vector; lysates 36 h post-transfection; HA-tagged SAMHD1 immunoprecipitated with HA-immobilized agarose beads; eluted with 0.2 M glycine; MS.

No constants are given. Whether binding was seen depends on the method and setting. Binding seen in cells or lysates may run through a third protein. Here binding means that the protein was enriched with, or labelled near, the bait; the list need not be complete.

Turning to DDB1 (from UniProt Q16531 1-1140), the binding result was “binds”.
